Laboratory results taken from PMC5818915.
Results are given in words; binding and its absence hold for the method and conditions named. In cells and extracts the contact can be indirect. Some results given as binding are weak or reduced against the parent protein; the word gives no strength. Tags and fused reporters may be left off the sequences shown.

Chains of the proteins cited; added tags and fusions are not shown.
UniProt P19263: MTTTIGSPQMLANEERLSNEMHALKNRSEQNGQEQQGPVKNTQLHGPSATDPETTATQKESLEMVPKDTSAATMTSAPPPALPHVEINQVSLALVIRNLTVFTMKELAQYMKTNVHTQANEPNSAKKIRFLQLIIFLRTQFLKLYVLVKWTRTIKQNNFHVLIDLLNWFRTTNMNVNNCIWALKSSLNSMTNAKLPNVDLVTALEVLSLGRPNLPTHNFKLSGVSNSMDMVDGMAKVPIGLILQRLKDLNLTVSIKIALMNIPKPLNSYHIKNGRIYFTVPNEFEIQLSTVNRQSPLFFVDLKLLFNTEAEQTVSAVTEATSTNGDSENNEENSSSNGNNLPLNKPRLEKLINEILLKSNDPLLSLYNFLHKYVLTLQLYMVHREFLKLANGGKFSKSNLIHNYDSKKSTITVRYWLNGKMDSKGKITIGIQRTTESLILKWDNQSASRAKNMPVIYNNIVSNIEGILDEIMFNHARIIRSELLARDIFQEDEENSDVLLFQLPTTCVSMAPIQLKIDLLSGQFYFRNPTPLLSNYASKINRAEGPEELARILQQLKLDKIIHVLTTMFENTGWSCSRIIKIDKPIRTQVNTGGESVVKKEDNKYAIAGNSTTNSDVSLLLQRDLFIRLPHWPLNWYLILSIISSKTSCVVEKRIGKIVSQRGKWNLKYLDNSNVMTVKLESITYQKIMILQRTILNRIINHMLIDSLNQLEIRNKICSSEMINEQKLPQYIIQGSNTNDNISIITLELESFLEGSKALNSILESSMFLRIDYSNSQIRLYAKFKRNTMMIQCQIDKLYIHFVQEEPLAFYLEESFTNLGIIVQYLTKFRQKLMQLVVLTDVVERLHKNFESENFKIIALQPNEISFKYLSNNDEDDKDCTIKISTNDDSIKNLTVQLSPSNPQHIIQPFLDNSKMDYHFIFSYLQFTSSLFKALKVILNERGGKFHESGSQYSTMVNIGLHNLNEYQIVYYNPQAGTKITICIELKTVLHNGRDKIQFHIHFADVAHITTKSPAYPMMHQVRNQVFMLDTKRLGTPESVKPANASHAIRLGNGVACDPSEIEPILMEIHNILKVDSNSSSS

Target: Med14 (Rgr1/Med14), subunit of the Mediator complex (S. cerevisiae (endogenous in yeast)) (UniProt P19263)
Experiment: co-IP; WCEs of yeast strains expressing LexA-Med6p derivatives, DEAE column fractionation to enrich Pol II holoenzyme; immunopurified with beads-coupled anti-Med14 antibody; western with anti-LexA and anti-Med14

B1: LexA-fused wild-type Med6p (S. cerevisiae) (protein, UniProt P38782 1-295)
chain: MNVTPLDELQWKSPEWIQVFGLRTENVLDYFAESPFFDKTSNNQVIKMQRQFSQLNDPNAAVNMTQNIMTLPDGKNGNLEEEFAYVDPARRQILFKYPMYMQLEEELMKLDGTEYVLSSVREPDFWVIRKQRRTNNSGVGSAKGPEIIPLQDYYIIGANIYQSPTIFKIVQSRLMSTSYHLNSTLESLYDLIEFQPSQGVHYKVPTDTSTTATAATNGNNAGGGSNKSSVRPTGGANMATVPSTTNVNMTVNTMGTGGQTIDNGTGRTGNGNMGITTEMLDKLMVTSIRSTPNYI
binding: binds
